Article PMC11597096
For part of these data: Results from cells or extracts need not show a direct contact. A negative result means that nothing was seen under these conditions. For part of these data: At least one verdict was read from the data and is not stated in words by the source. For at least one entry, the source does not settle the construct or the ends of the probe. For part of these data: The comparison behind a weaker result is the experiment's own reference, which may not be listed here.

Protein sequences, listed by entry. Tags and fused reporters are not part of them. Residues count along the entry.
UniProt P09874, whole entry: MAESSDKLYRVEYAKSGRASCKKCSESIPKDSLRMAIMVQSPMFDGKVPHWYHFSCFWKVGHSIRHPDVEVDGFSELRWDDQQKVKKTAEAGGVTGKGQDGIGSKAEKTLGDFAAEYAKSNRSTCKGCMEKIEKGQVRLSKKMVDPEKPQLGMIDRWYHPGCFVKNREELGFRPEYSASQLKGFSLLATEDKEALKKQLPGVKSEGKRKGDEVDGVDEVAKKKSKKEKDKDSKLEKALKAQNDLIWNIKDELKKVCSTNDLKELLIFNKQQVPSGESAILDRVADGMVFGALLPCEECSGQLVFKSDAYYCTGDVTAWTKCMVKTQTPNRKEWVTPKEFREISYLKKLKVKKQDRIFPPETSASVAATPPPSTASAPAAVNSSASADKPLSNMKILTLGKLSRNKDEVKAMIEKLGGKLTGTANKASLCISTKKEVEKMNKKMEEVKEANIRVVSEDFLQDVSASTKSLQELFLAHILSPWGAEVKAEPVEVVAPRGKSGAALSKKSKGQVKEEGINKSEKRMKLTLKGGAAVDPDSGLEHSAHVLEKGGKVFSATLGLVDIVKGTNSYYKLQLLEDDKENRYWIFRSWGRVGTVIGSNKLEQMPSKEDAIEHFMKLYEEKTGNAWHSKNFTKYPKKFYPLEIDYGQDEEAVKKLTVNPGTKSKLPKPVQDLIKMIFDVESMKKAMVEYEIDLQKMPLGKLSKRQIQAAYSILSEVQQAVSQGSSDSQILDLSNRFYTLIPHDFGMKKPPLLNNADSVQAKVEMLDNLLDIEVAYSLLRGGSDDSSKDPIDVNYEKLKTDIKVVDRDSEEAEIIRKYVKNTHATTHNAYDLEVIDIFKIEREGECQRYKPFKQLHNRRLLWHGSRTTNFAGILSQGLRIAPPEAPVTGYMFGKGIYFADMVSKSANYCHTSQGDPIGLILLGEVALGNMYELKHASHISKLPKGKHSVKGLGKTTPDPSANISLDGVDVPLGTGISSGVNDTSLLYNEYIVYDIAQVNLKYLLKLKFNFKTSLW
UniProt P09874, 2-1014: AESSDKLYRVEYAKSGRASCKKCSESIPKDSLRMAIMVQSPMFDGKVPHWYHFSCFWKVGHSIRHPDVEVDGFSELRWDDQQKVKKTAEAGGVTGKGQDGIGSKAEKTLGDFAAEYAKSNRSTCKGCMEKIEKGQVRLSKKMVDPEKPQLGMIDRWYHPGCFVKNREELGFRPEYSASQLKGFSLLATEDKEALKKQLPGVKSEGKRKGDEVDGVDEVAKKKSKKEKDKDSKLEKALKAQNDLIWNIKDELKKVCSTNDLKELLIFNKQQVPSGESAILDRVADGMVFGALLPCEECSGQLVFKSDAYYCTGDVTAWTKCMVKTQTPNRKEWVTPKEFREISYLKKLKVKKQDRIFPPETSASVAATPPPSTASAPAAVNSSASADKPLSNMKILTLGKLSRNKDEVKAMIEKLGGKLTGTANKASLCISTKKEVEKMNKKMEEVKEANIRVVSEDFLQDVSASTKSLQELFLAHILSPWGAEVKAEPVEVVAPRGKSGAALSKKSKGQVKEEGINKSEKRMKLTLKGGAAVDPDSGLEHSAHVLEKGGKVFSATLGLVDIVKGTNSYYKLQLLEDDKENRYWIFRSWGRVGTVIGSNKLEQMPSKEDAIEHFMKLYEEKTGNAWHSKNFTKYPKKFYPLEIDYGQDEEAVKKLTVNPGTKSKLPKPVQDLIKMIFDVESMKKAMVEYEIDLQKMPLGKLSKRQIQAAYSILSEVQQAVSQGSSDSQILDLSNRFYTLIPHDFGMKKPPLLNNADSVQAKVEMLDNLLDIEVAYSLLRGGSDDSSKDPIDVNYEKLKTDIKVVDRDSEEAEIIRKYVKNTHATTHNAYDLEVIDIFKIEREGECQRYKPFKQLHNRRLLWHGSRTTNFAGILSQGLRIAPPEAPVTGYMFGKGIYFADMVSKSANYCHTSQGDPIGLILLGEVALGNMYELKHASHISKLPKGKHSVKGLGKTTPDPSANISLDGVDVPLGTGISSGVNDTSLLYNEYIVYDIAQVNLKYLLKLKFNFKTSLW

What was measured:
[1] = target: PARP1 (Homo sapiens) (UniProt P09874); assay: BLI; details: BLI: 1x PBS pH 7.4, 25 °C, SAX biosensors, biotinylated oligo loaded at 2 uM, PARP1 2.5-162 nM, recombinant protein, label: 5'-biotin
[2] = target: PARP1 (G01 lysate) (Homo sapiens (G01 glioblastoma cell culture)) (UniProt P09874); assay: pull-down + LC-MS; details: RNase A treated, Pull-down: 25 mM Tris-HCl pH 7.4, 150 mM NaCl, 1 mM EDTA, 1% NP-40, 5% glycerol, 0.1 mM DTT, room temperature, protein in an extract, label: biotin

Q: What does the source list for CATTTAGGACCAACACAA [SS-DNA control]?
A: binding result ([1]; 0.1 mg/mL salmon sperm DNA, signal completely disappeared, single-stranded DNA): no binding; binding result ([1]; no competitor, amplitude about 1 versus 8 for bi-(AID-1-T), signal from 20 nM PARP1, single-stranded DNA): binds more weakly

Q: Does “GCCGGCATTTTGACGCCGCCCCGGCTGCTTATGCTCCGGGGCATATGGC [DS-DNA control (hairpin)]” bind ([1]; 0.1 mg/mL salmon sperm DNA, signal significantly reduced, folded or branched DNA)?
A: Result: binds more weakly

Q: Does “GCCGGCATTTTGACGCCGCCCCGGCTGCTTATGCTCCGGGGCATATGGC [DS-DNA control (hairpin)]” bind ([1]; no competitor, amplitude about 8, signal from 20 nM PARP1, folded or branched DNA)?
A: Result: binds

Q: Does “GGACGGGGATTTAATCGCCGTAGTAGAAAAGCATGTCAAAAGCCGGAACCGTCC [pull-down control oligonucleotide]” bind ([2]; single-stranded DNA)?
A: Result: no binding

Q: Does “GGGTGGTGGGTGGTGGTGGTGGTGGTGGTGGTGGTGGTGGTGGTGGTGGTGGTGGTGGG [bi-(AID-1-T) as printed in pull-down methods]” bind ([2]; folded or branched DNA)?
A: Result: binds
